Record: PubChem BioAssay AID743121 (NCATS, 2013)
Shown is a random part of about 26,000 deposited reagents. Over the whole deposit, 167 (0.63%) are marked active. 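Calls are per gene from RSA p-values that are not deposited; an individual active-marked siRNA can sensitise only weakly.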 The numbers tell different reagents against one gene apart.

- Assay: 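Genes whose silencing strengthens cell killing by camptothecin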 (primary screen)
- System: MDA-MB-231 cells, a human breast cancer line
- Reagents: single siRNA against human genes, 20 nM siRNA (0.8 pmol per well)
- Timing: 120 h (drug added 48 h after transfection, read 72 h later)
- Challenge: camptothecin 20 nM (about EC30) for 72 h; vehicle 0.1% DMSO in parallel plates
- Measurement: 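CellTiter-Glo ATP signal, scaled to control siRNA as percent viability; sensitisation given as log2 of untreated divided by camptothecin-treated viability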
- Reading the numbers: log2 vehicle/camptothecin viability: higher = stronger sensitisation to camptothecin; viability with camptothecin and viability without drug: higher = more viable cells
- Hit rule: 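Active genes have an RSA gene-level p-value below 0.001, computed from the ratios of their separate siRNAs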

The first 3 records as a preview:
| Gene | reagent no. | log2 vehicle/camptothecin viability | viability with camptothecin (% of control) | viability without drug (% of control) | Call |
| --- | --- | --- | --- | --- | --- |
| MAPT (GeneID 4137) | 1 | -0.133 | 49.6 | 45.3 | inactive |
| MAPT (GeneID 4137) | 2 | -0.289 | 50.1 | 41 | inactive |
| MAPT (GeneID 4137) | 3 | -0.339 | 49.6 | 39.2 | inactive |

The listing, from the first entry:
| Gene | reagent no. | log2 vehicle/camptothecin viability | viability with camptothecin (% of control) | viability without drug (% of control) | Call |
| --- | --- | --- | --- | --- | --- |
| MAPT (GeneID 4137) | 1 | -0.133 | 49.6 | 45.3 | inactive |
| MAPT (GeneID 4137) | 2 | -0.289 | 50.1 | 41 | inactive |
| MAPT (GeneID 4137) | 3 | -0.339 | 49.6 | 39.2 | inactive |
| MAPT (GeneID 4137) | 4 | -0.214 | 97 | 83.6 | inactive |
| NLGN1 (GeneID 22871) | 1 | -0.372 | 54.5 | 42.1 | inactive |
| NLGN1 (GeneID 22871) | 2 | -0.273 | 127 | 105 | inactive |
| NLGN1 (GeneID 22871) | 3 | -0.586 | 92 | 61.3 | inactive |
| MCC (GeneID 4163) | 1 | -0.429 | 86.8 | 64.4 | inactive |
| MCC (GeneID 4163) | 2 | -0.366 | 96.1 | 74.6 | inactive |
| MCC (GeneID 4163) | 3 | -0.0129 | 70.8 | 70.1 | inactive |
| MCC (GeneID 4163) | 4 | -0.0632 | 89 | 85.2 | inactive |
| CSF3R (GeneID 1441) | 1 | 0.194 | 76.6 | 87.6 | inactive |
| CSF3R (GeneID 1441) | 2 | -0.0367 | 59.3 | 57.8 | inactive |
| CSF3R (GeneID 1441) | 3 | 1.56 | 18.2 | 53.6 | inactive |
| CSF3R (GeneID 1441) | 4 | -0.151 | 109 | 98.3 | inactive |
| EXOG (GeneID 9941) | 1 | 0.267 | 74.6 | 89.8 | inactive |
| EXOG (GeneID 9941) | 2 | -0.27 | 98.2 | 81.5 | inactive |
| EXOG (GeneID 9941) | 3 | 0.365 | 57.8 | 74.5 | inactive |
| TUBD1 (GeneID 51174) | 1 | 1.56 | 16.7 | 49.3 | inactive |
| TUBD1 (GeneID 51174) | 2 | -0.0288 | 111 | 109 | inactive |
| TUBD1 (GeneID 51174) | 3 | -0.0013 | 109 | 109 | inactive |
| TUBD1 (GeneID 51174) | 4 | -0.0526 | 76.6 | 73.8 | inactive |
| PRKCSH (GeneID 5589) | 1 | 0.0125 | 105 | 106 | inactive |
| PRKCSH (GeneID 5589) | 2 | -0.343 | 103 | 81.3 | inactive |
| PRKCSH (GeneID 5589) | 3 | -0.334 | 96.7 | 76.7 | inactive |
| PRKCSH (GeneID 5589) | 4 | 0.302 | 10.2 | 12.6 | inactive |
| RNF130 (GeneID 55819) | 1 | -0.27 | 95.1 | 78.9 | inactive |
| RNF130 (GeneID 55819) | 2 | 0.294 | 69.3 | 85 | inactive |
| RNF130 (GeneID 55819) | 3 | -0.328 | 64.2 | 51.1 | inactive |
| RNF130 (GeneID 55819) | 4 | -0.371 | 87.2 | 67.4 | inactive |
